Measured values: PMC3081313, “Factors Defining the Functional Oligomeric State of Escherichia coli DegP Protease” (PLoS ONE, 2011)
These are yes or no findings as the source states them, for the method shown. Some results given as binding are weak or reduced against the parent protein; the word gives no strength.

What was measured:
[1] = target: T1, proteolytically inactive DegP_(S210A) (Escherichia coli, UniProt P0C0V0 27-474, S210A); experiment: SEC; DegP_(S210A) mixed with full-length MDH, 37°C 10 min; Superdex 200 in 50 mM HEPES pH 7.3, 150 mM NaCl at 4°C; both purified
T1 construct: Escherichia coli DegP (HtrA, protease Do), periplasmic protease and chaperone, with the active-site change S210A; Number of copies depends on the sample: hexamer alone, 12-mer or 24-mer with substrate; also called HtrA_(S210A); DegP6
T1 sequence (looked up): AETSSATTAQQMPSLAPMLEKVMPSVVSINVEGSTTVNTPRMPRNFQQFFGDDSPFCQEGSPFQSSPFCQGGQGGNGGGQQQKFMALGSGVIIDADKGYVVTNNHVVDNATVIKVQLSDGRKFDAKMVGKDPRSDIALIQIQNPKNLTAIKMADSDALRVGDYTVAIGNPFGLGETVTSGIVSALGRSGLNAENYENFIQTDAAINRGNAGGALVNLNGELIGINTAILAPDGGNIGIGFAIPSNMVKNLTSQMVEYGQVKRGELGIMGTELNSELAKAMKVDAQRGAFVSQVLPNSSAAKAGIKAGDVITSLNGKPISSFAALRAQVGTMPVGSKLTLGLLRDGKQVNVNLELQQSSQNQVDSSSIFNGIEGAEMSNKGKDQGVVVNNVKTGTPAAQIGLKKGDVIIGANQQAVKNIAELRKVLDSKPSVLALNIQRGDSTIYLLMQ

[2] = target: T1, proteolytically inactive DegP_(S210A); experiment: SEC; DegP_(S210A) (42 µM) mixed with full-length β-casein (42 µM; also in molar excess), 37°C 10 min in 50 mM HEPES pH 7.3; Superdex 200 in 50 mM HEPES pH 7.3, 150 mM NaCl at 4°C; peak fractions on SDS-PAGE; both purified

B1: full-length malate dehydrogenase (MDH) (enzyme, UniProt P00346 25-338)
chain: AKVAVLGASGGIGQPLSLLLKNSPLVSRLTLYDIAHTPGVAADLSHIETRATVKGYLGPEQLPDCLKGCDVVVIPAGVPRKPGMTRDDLFNTNATIVATLTAACAQHCPDAMICIISNPVNSTIPITAEVFKKHGVYNPNKIFGVTTLDIVRANAFVAELKGLDPARVSVPVIGGHAGKTIIPLISQCTPKVDFPQDQLSTLTGRIQEAGTEVVKAKAGAGSATLSMAYAGARFVFSLVDAMNGKEGVVECSFVKSQETDCPYFSTPLLLGKKGIEKNLGIGKISPFEEKMIAEAIPELKASIKKGEEFVKNMK
[1]
  binding: binds weakly

B2: full-length β-casein (protein, UniProt P02666 16-224)
chain: RELEELNVPGEIVESLSSSEESITRINKKIEKFQSEEQQQTEDELQDKIHPFAQTQSLVYPFPGPIPNSLPQNIPPLTQTPVVVPPFLQPEVMGVSKVKEAMAPKHKEMPFPKYPVEPFTESQSLTLTDVENLHLPLPLLQSWMHQPHQPLPPTVMFPPQSVLSLSQSKVLPVPQKAVPYPQRDMPIQAFLLYQEPVLGPVRGPFPIIV
[2]
  binding: binds
